US7696233B2, “Method for controlling particular insect pests by applying anthranilamide compounds” (E. I. du Pont de Nemours and Company, priority 2001, dated 2010)
Some of these results come from one statement about several compounds together.

Experiments:
Type in all cases: in vivo
[1] = test system: tobacco budworm (Heliothis virescens); assay: Test B: control of tobacco budworm, foliar spray on cotton; settings: sprayed at 50 ppm, visually rated after 6 days
[2] = test system: fall armyworm (Spodoptera frugiperda); assay: Test A: control of fall armyworm, foliar spray on corn; settings: sprayed at 50 ppm, visually assessed after 6 days
[3] = test system: beet armyworm (Spodoptera exigua); assay: Test C: control of beet armyworm, foliar spray on corn; settings: sprayed at 50 ppm, visually rated after 6 days

Measured: feeding damage (excellent levels of plant protection)

CC(C)NC(=O)c1cc(Br)cc(Br)c1NC(=O)c1cc(Cl)nn1-c1ncccc1Cl [Compound 550]
≤ 10%: all assays above

CNC(=O)c1cc(Br)cc(Br)c1NC(=O)c1cc(Cl)nn1-c1ncccc1Cl [Compound 551]
≤ 10%: all assays above

CC(C)(C)NC(=O)c1cc(Br)cc(Br)c1NC(=O)c1cc(Cl)nn1-c1ncccc1Cl [Compound 552]
≤ 10%: all assays above

CCNC(=O)c1cc(Br)cc(Br)c1NC(=O)c1cc(Cl)nn1-c1ncccc1Cl [Compound 553]
≤ 10%: all assays above

CC(C)NC(=O)c1cc(Cl)cc(Cl)c1NC(=O)c1cc(Cl)nn1-c1ncccc1Cl [Compound 554]
≤ 10%: all assays above

CNC(=O)c1cc(Cl)cc(Cl)c1NC(=O)c1cc(Cl)nn1-c1ncccc1Cl [Compound 555]
≤ 10%: all assays above

CC(C)(C)NC(=O)c1cc(Cl)cc(Cl)c1NC(=O)c1cc(Cl)nn1-c1ncccc1Cl [Compound 556]
≤ 10%: all assays above

CCNC(=O)c1cc(Cl)cc(Cl)c1NC(=O)c1cc(Cl)nn1-c1ncccc1Cl [Compound 557]
≤ 10%: all assays above

CCNC(=O)c1cc(Cl)cc(C)c1NC(=O)c1cc(Cl)nn1-c1ncccc1Cl [Compound 558]
≤ 10%: all assays above

CCNC(=O)c1cc(Cl)cc(C)c1NC(=O)c1cc(C(F)(F)F)nn1-c1ncccc1Cl [Compound 559]
≤ 10%: all assays above

CCNC(=O)c1cc(I)cc(C)c1NC(=O)c1cc(C(F)(F)F)nn1-c1ncccc1Cl [Compound 560]
≤ 10%: all assays above

Cc1cc(I)cc(C(=O)NC(C)(C)C)c1NC(=O)c1cc(C(F)(F)F)nn1-c1ncccc1Cl [Compound 561]
≤ 10%: all assays above

CCNC(=O)c1cc(Cl)cc(C)c1NC(=O)c1cc(Br)nn1-c1ncccc1Cl [Compound 562]
≤ 10%: all assays above

CNC(=O)c1cc(F)cc(C)c1NC(=O)c1cc(C(F)(F)F)nn1-c1ncccc1Cl [Compound 563]
≤ 10%: all assays above

CCNC(=O)c1cc(F)cc(C)c1NC(=O)c1cc(C(F)(F)F)nn1-c1ncccc1Cl [Compound 564]
≤ 10%: all assays above

Cc1cc(F)cc(C(=O)NC(C)(C)C)c1NC(=O)c1cc(C(F)(F)F)nn1-c1ncccc1Cl [Compound 565]
≤ 10%: all assays above

CNC(=O)c1cc(F)cc(C)c1NC(=O)c1cc(Br)nn1-c1ncccc1Cl [Compound 566]
≤ 10%: all assays above

CCNC(=O)c1cc(F)cc(C)c1NC(=O)c1cc(Br)nn1-c1ncccc1Cl [Compound 567]
≤ 10%: all assays above

Cc1cc(F)cc(C(=O)NC(C)C)c1NC(=O)c1cc(Br)nn1-c1ncccc1Cl [Compound 568]
≤ 10%: all assays above

CCNC(=O)c1cc(Br)cc(C)c1NC(=O)c1cc(Cl)nn1-c1ncccc1Cl [Compound 569]
≤ 10%: all assays above

Cc1cc(F)cc(C(=O)NC(C)C)c1NC(=O)c1cc(Cl)nn1-c1ncccc1Cl [Compound 570]
≤ 10%: all assays above

CNC(=O)c1cc(F)cc(C)c1NC(=O)c1cc(Cl)nn1-c1ncccc1Cl [Compound 571]
≤ 10%: all assays above

CCNC(=O)c1cc(F)cc(C)c1NC(=O)c1cc(Cl)nn1-c1ncccc1Cl [Compound 572]
≤ 10%: all assays above

Cc1cc(Br)cc(C(=O)NC(C)(C)C)c1NC(=O)c1cc(Cl)nn1-c1ncccc1Cl [Compound 573]
≤ 10%: all assays above

Cc1cc(F)cc(C(=O)NC(C)(C)C)c1NC(=O)c1cc(Br)nn1-c1ncccc1Cl [Compound 574]
≤ 10%: all assays above

CCNC(=O)c1cc(Br)cc(Br)c1NC(=O)c1cc(Br)nn1-c1ncccc1Cl [Compound 575]
≤ 10%: all assays above

CCNC(=O)c1cc(Cl)cc(Cl)c1NC(=O)c1cc(Br)nn1-c1ncccc1Cl [Compound 577]
≤ 10%: all assays above

CCNC(=O)c1cc(Br)cc(C)c1NC(=O)c1cc(Br)nn1-c1ncccc1Cl [Compound 578]
≤ 10%: all assays above

CNC(=O)c1cc(I)cc(C)c1NC(=O)c1cc(Br)nn1-c1ncccc1Cl [Compound 579]
≤ 10%: all assays above
